PubChem BioAssay AID686938, Drosophila RNAi Screening Center – 2013
Assay: 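Fly genes required for calcium entry once internal stores are emptied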 (primary screen). Cell system: Drosophila S2R+ cells. Reagent: long dsRNA against Drosophila genes, about 0.25 µg dsRNA per well, roughly 10,000 cells. Timing: 5 days of knock-down before the calcium assay. Conditions: thapsigargin (SERCA pump blocker) to empty calcium stores; entry signal taken 4 min after adding it. Measured: 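Duplicate raw fluo-4 intensities per well from a plate reader, at rest and four minutes after thapsigargin emptied calcium stores; entry-to-rest ratio filled for only some wells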. Reading the numbers: calcium entry signal: higher = stronger calcium signal after store depletion; resting calcium signal: higher = higher resting calcium signal. Units: calcium entry signal in fluorescence units; resting calcium signal in fluorescence units. Active means: 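Called when the plate z-score of the entry-to-rest ratio, mean of duplicates, falls below −3; wells with low overall dye signal (Fmax z below −2) or more than five off-targets excluded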. Calls: active = strongly reduced calcium entry; inactive = no strong reduction.
In all, the deposit lists about 23,000 reagents; shown is a random part of those that have a named target and a result. Over the whole deposit, 75 (0.33%) got an active call. 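Raw plate signals without normalisation; calls rest on plate z-scores that were not deposited; ratio present for only 364 wells.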 Unmarked entries are inactive. The numbers tell different reagents against one gene apart. The record does not give: the dose of the treatment.

{"gene": "CG12375", "reagent no.": 1, "calcium entry signal, replicate 1": 4.39e7, "resting calcium signal, replicate 1": 2.21e7}
{"gene": "mol", "reagent no.": 1, "calcium entry signal, replicate 1": 2.51e7, "calcium entry signal, replicate 2": 4.37e7, "resting calcium signal, replicate 1": 1.58e7, "resting calcium signal, replicate 2": 2.22e7}
{"gene": "mol", "reagent no.": 2, "calcium entry signal, replicate 1": 8.01e7, "resting calcium signal, replicate 1": 3.52e7}
{"gene": "mol", "reagent no.": 3, "calcium entry signal, replicate 1": 3.75e7, "calcium entry signal, replicate 2": 2.59e7, "resting calcium signal, replicate 1": 1.79e7, "resting calcium signal, replicate 2": 1.22e7}
{"gene": "CG13924", "reagent no.": 1, "calcium entry signal, replicate 1": 3.85e7, "calcium entry signal, replicate 2": 4.02e7, "resting calcium signal, replicate 1": 1.97e7, "resting calcium signal, replicate 2": 1.76e7}
{"gene": "dsd", "reagent no.": 1, "calcium entry signal, replicate 1": 4.07e7, "calcium entry signal, replicate 2": 2.92e7, "resting calcium signal, replicate 1": 1.55e7, "resting calcium signal, replicate 2": 1.41e7}
{"gene": "dsd", "reagent no.": 2, "calcium entry signal, replicate 1": 4.50e7, "calcium entry signal, replicate 2": 5.21e7, "resting calcium signal, replicate 1": 2.11e7, "resting calcium signal, replicate 2": 2.29e7}
{"gene": "CG12910", "reagent no.": 1, "calcium entry signal, replicate 1": 3.83e7, "calcium entry signal, replicate 2": 3.77e7, "resting calcium signal, replicate 1": 1.67e7, "resting calcium signal, replicate 2": 1.76e7}
{"gene": "grn", "reagent no.": 1, "calcium entry signal, replicate 1": 2.82e7, "calcium entry signal, replicate 2": 6.26e7, "resting calcium signal, replicate 1": 1.70e7, "resting calcium signal, replicate 2": 2.88e7}
{"gene": "grn", "reagent no.": 2, "calcium entry signal, replicate 1": 5.17e7, "calcium entry signal, replicate 2": 3.99e7, "resting calcium signal, replicate 1": 2.50e7, "resting calcium signal, replicate 2": 1.78e7}
{"gene": "GrlHz", "reagent no.": 1, "calcium entry signal, replicate 1": 3.75e7, "resting calcium signal, replicate 1": 1.94e7}
{"gene": "Pngl", "reagent no.": 1, "calcium entry signal, replicate 1": 4.25e7, "calcium entry signal, replicate 2": 4.20e7, "resting calcium signal, replicate 1": 2.08e7, "resting calcium signal, replicate 2": 1.95e7}

Look-ups from above.
GrlHz, resting calcium signal, replicate 1 → 1.94e7
Under “calcium entry signal, replicate 1”, CG12375 shows 4.39e7
